According to patent US7485456:
Results are given in words; binding and its absence hold for the method and conditions named. For part of these data: In cells and extracts the contact can be indirect. Some entries that bind do so weakly or less than the wild type. For part of these data: Tags and fused reporters may be left off the sequences shown. Each block holds one substance with its values, some of them ahead of it.

Sequences of proteins named here, by UniProt entry; tags and fusion partners are left off. A change or cut given only in a name is not applied to a line headed by its entry. Residues count along the entry.
UniProt P36941, residues 249-435: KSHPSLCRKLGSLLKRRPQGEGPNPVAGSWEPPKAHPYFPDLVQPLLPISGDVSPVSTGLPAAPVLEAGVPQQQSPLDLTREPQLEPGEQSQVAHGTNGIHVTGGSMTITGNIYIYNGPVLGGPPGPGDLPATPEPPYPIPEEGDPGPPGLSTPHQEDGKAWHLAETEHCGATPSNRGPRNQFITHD
UniProt Q99558: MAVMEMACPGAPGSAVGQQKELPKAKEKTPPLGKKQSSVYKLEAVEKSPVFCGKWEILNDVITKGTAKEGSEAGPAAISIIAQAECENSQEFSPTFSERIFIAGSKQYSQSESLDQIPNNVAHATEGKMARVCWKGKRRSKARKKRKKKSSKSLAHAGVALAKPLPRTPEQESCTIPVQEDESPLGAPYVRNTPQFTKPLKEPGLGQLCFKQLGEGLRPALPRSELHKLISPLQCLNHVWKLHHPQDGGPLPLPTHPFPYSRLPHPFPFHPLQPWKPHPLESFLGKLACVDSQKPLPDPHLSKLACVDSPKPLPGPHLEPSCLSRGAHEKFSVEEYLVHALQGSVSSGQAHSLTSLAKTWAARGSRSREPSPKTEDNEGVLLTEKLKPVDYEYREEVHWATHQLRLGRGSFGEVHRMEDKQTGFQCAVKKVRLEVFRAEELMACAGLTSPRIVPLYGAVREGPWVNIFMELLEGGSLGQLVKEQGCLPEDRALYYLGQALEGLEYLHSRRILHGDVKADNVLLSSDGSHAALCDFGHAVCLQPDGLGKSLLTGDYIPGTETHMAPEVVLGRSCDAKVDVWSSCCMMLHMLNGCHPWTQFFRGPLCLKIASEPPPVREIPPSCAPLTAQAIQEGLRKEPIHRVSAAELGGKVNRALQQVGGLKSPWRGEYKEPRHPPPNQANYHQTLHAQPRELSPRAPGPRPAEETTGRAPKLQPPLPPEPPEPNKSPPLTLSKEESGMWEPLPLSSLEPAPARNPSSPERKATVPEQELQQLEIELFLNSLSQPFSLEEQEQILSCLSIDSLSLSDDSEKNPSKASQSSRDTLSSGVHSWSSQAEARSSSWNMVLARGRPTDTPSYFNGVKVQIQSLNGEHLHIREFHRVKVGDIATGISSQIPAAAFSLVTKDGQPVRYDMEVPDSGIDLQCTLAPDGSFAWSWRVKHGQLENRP

Legend:
[1] = target: human TRAF2 in pGBT9 vector in conjunction with GAL4 DNA binding domain (two-hybrid bait) (human); experiment: yeast two-hybrid screen with TRAF2 bait, positive clones
[2] = target: human TRAF2 in pGBT9 vector in conjunction with GAL4 DNA binding domain (two-hybrid bait) (human); experiment: yeast two-hybrid with TRAF2 bait, growth on 50 mM 3AT (HIS3 reporter)
[3] = target: T1, FLAG/B6/TRAF2 (TRAF2 tagged with FLAG, expressed in HeLa-Bujard cells) (human) (UniProt Q12933); experiment: co-immunoprecipitation from co-transfected HeLa-Bujard cells (anti-FLAG or anti-HA), SDS-PAGE, autoradiography
T1 sequence: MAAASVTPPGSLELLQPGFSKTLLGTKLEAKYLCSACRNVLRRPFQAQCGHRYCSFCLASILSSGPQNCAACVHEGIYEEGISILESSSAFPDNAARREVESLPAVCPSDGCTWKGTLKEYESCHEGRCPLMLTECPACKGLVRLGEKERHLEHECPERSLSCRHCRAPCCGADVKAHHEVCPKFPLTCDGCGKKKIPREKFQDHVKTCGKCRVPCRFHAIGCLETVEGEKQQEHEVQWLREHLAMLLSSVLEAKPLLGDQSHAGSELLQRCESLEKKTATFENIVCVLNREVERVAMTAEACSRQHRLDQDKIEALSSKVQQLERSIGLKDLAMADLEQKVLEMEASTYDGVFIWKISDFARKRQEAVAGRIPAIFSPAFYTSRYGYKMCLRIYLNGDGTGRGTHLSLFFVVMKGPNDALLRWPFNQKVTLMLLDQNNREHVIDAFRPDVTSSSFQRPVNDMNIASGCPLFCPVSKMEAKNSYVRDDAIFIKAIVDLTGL

[4] = target: T2, C-terminal region of TRAF2 (C-TRAF domain) (human) (UniProt Q12933); experiment: yeast two-hybrid (results not shown)
T2 sequence: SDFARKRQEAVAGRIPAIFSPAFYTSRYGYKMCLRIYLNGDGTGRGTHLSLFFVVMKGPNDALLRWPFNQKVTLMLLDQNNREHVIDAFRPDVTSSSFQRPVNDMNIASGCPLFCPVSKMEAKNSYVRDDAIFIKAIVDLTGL

[5] = target: T3, region of TRAF2 upstream of the C-TRAF domain (N-TRAF domain) (human) (UniProt Q12933); experiment: yeast two-hybrid (results not shown)
T3 sequence: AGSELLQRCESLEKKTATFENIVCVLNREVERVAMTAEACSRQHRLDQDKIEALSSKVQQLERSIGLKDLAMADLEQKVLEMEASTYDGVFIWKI

[6] = target: human TRAF2 in pGBT9 vector in conjunction with GAL4 DNA binding domain (two-hybrid bait) (human); experiment: yeast two-hybrid specificity test
[7] = target: human TRAF2 in pGBT9 vector in conjunction with GAL4 DNA binding domain (two-hybrid bait) (human); experiment: yeast two-hybrid specificity test, TRAF2 bait

Substance: Lymphotoxin beta receptor cDNA clones picked from the human B-cell library (two-hybrid prey, GAL4 activation domain fusion) (from UniProt P36941 249-435)
binding [1]: binds
binding [2]: binds

binding [3]: binds
Substance: ORF of clone 10 in fusion with the Hemeaglutinine (HA) epitope, expressed in HeLa-Bujard cells (from UniProt Q99558 624-947) (enzyme)

binding [4]: binds
binding [5]: binds
Substance: full-length NIK (NF-kB inducing kinase) (from UniProt Q99558 1-947) (enzyme)

binding [6]: binds
binding [4]: binds
binding [7]: binds
binding [2]: binds
Substance: protein encoded by new clone number 10, partial NIK (NIK 624-947) (two-hybrid prey, GAL4 activation domain fusion) (from UniProt Q99558 624-947) (enzyme)
